{"source": "patent US20230123654A1", "about": "(priority 2020, published 2023)", "key": {"[1]": {"tested_on": "Nav1.5 transfected cells (CHO)"}, "[2]": {"tested_on": "Nav1.5 transfected cells (CHO)", "format": "cell-based, Chinese hamster"}}, "data": [{"molecule": "CCN(CC)CC(=O)Nc1c(C)cccc1C", "note": "[Lidocaine, lidocaine]", "values": [{"measurement": "effect on reduction in cell viability at high glucose", "setting": "[1]", "result": "only partially reduced the glucose-elicited cytotoxicity"}, {"measurement": "ROS levels at high glucose", "setting": "[2]", "result": "only partial ROS reduction"}]}]}
